These are yes or no findings as the source states them, for the method shown. Binding seen in cells or lysates may run through a third protein. Some entries that bind do so weakly or less than the wild type. Where a sequence is shown, tags or fusion partners need not be part of it.
Legend:
EGFP-WWOX = molecular target: T1, EGFP-WWOX (UniProt Q9NZC7); test: FRET or BRET; time-lapse tri-molecular FRET microscopy (ECFP to EGFP to DsRed-monomer, FRETc) in living DU145 cells transiently transfected with the three constructs and treated with hyaluronan (HA)
T1 sequence: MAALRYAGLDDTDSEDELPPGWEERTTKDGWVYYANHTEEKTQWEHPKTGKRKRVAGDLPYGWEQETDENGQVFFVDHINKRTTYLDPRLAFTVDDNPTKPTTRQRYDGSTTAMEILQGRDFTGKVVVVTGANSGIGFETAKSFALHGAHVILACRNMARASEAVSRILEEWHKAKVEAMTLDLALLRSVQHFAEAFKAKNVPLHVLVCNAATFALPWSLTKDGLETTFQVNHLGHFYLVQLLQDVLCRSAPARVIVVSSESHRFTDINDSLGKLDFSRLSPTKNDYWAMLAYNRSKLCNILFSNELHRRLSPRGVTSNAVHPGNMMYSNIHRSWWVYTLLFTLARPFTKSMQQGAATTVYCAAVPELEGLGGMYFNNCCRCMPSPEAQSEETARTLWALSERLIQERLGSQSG

Amino acid sequences for entries named in this document (tags omitted).
UniProt Q13485: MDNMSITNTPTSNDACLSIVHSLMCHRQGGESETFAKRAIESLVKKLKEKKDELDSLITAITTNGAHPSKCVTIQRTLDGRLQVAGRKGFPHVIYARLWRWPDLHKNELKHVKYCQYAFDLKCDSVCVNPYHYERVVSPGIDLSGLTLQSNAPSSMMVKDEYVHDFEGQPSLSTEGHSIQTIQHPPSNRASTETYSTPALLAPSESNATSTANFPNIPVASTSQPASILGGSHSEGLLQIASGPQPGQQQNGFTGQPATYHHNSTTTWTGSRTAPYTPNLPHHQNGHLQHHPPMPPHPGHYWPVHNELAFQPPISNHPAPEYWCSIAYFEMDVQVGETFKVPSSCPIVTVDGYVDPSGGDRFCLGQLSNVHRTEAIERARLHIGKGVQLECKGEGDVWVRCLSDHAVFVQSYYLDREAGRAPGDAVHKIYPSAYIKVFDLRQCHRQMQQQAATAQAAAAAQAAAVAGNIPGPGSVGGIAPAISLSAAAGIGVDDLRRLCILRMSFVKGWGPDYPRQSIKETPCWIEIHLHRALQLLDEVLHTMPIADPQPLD

ECFP-Smad4 [1] = molecular target: ECFP-Smad4 (UniProt Q13485); test: FRET or BRET; FRETc measured for cyan to green fluorescence (ECFP to EGFP) in living DU145 cells transfected with ECFP-Smad4, EGFP-WWOX and DsRed-monomer-p53 and treated with HA, time-lapse
ECFP-Smad4 [2] = molecular target: ECFP-Smad4 (UniProt Q13485); test: FRET or BRET; time-lapse tri-molecular FRET microscopy (ECFP to EGFP to DsRed-monomer, FRETc) in living DU145 cells transiently transfected with the three constructs and treated with hyaluronan (HA)
ECFP-Smad4 [3] = molecular target: ECFP-Smad4 (UniProt Q13485); test: FRET or BRET; time-lapse two-protein FRET microscopy (ECFP donor, excitation 440 nm; EYFP acceptor, 535 nm; FRETc) in living NCI-H1299 cells transfected with ECFP-Smad4 and EYFP-TIAF1 and treated with TGF-β1 (5 ng/ml)

In the case of “DsRed-monomer p53 (from UniProt P04637 1-393)”, the binding (EGFP-WWOX) is reported as “binds”.

B1: EGFP-WWOX (protein, UniProt Q9NZC7 1-414)
chain: MAALRYAGLDDTDSEDELPPGWEERTTKDGWVYYANHTEEKTQWEHPKTGKRKRVAGDLPYGWEQETDENGQVFFVDHINKRTTYLDPRLAFTVDDNPTKPTTRQRYDGSTTAMEILQGRDFTGKVVVVTGANSGIGFETAKSFALHGAHVILACRNMARASEAVSRILEEWHKAKVEAMTLDLALLRSVQHFAEAFKAKNVPLHVLVCNAATFALPWSLTKDGLETTFQVNHLGHFYLVQLLQDVLCRSAPARVIVVSSESHRFTDINDSLGKLDFSRLSPTKNDYWAMLAYNRSKLCNILFSNELHRRLSPRGVTSNAVHPGNMMYSNIHRSWWVYTLLFTLARPFTKSMQQGAATTVYCAAVPELEGLGGMYFNNCCRCMPSPEAQSEETARTLWALSERLIQERLGSQSG
In the case of B1, the binding (ECFP-Smad4 [1]) is reported as “binds” and the binding (ECFP-Smad4 [2]) is reported as “binds”.

B2: EYFP-TIAF1 (protein, UniProt O95411 1-115)
chain: MSSPSSPFREQSFLCAAGDAGEESRVQVLKNEVRRGSPVLLGWVEQAYADKCVCGPSAPPAPTPPSLSQRVMCNDLFKVNPFQLQQFRADPSTASLLLCPGGLDHKLNLRGKAWG
In the case of B2, the binding (ECFP-Smad4 [3]) is reported as “binds”.

From PMC5864757
